Some results were stated once for a whole list of compounds, not compound by compound.
Tested on: Drosophila suzukii
Experiment: Feeding test of D. suzukii adults with tyramine or M-tyramine sucrose solutions (fly mortality)
Assay type: in vivo
Conditions: 2% compound in 0.5 M sucrose, 7 days
Protocol: Flies and sugars: Drosophila suzukii used in these experiments were from a colony maintained at 22±5° C. under a photoperiod of L:D 16:8 h and a relative humidity of 60±5% RH at the Horticultural Crops Research Unit, USDA ARS in Corvallis, Oreg. Wildtype flies collected from infested fruits in Corvallis, Oreg., were used to start the colony. Standard rearing methods and diet are described by Woltz et al. (Journal of Applied Entomology, 139: 759-770 (2015)). Newly emerged adult males and females were collected daily and maintained in cages with water and diet until they were specific ages for experimentation.
The chemical components were tyramine (98%, Sigma-Aldrich), N-methyl-tyramine (shortened name=M-tyramine), 95%, Combi-Blocks, Inc.), and sucrose (>99%, Fisher Scientific, Hampton, N.H.).
The effect of tyramine and M-tyramine formulations on fly mortality-I: Ten 5-day old flies (5 males and 5 females) were introduced into a plastic vial and given a tube (1.5 ml) containing different water-based solutions (FIG. 1). For the first experiment various pairs were tested (FIG. 2A): (a) Sucrose 0.5 M only; (b) Tyramine 0.1%+Sucrose 0.5 M (0.1% Tyramine); (c) Tyramine 1%+Sucrose 0.5 M (1% Tyramine); (d) M-Tyramine 0.1%+Sucrose 0.5 M (0.1% M-Tyramine); and (e) M-Tyramine 1%+Sucrose 0.5 M (1% M-Tyramine). […]

CNCCc1ccc(O)cc1 [M-tyramine, N-methyl-tyramine]
mortality: over 85%
